# Construct, isoform or probe ends are uncertain for at least one entry. Weaker means in comparison with the reference protein, sequence or condition of that experiment. At least one verdict rests on a figure or table, not on a statement of the authors.
# Target: FLAG-p53 (UniProt P04637)
# Test: EMSA
# Settings: FLAG-p53 12.5 nM, 10 mM Tris-HCl pH 7.4, 2.5 mM DTT, 0.05% NP-40, 10 min preincubation with chelator at 37 °C, then 3 h with probe at 37 °C, electrophoresis at 4 °C, recombinant protein, protein details: FLAG, label: FITC
sequence,measurement,setting,value
GGACATGCCCGGGCATGTCC (double strand) [p53 consensus probe],binding result,"Bispicen (Zn(II) chelator) preincubated, inhibits",binds more weakly
same,binding result,"Cyclen (Zn(II) chelator) preincubated, inhibits",binds more weakly
same,binding result,"TPA (Zn(II) chelator) preincubated, inhibits",binds more weakly
same,binding result,"TPEN (Zn(II) chelator) preincubated, inhibits",binds more weakly
same,binding result,no chelator,binds

# Reference: publication PMC3926839
